Measurements taken from patent US8030453B2, “Methods of making an antibody that binds a chemerin polypeptide” (Euroscreen S.A., priority 2001, dated 2011).

Target: T1, ChemerinR (Homo sapiens, UniProt Q99788)
T1 construct: This fragment was subcloned into the pcDNA3 (Invitrogen) vector; expressed in transfected cells; CHO-K1 elsewhere)
T1 sequence (Q99788 3-373): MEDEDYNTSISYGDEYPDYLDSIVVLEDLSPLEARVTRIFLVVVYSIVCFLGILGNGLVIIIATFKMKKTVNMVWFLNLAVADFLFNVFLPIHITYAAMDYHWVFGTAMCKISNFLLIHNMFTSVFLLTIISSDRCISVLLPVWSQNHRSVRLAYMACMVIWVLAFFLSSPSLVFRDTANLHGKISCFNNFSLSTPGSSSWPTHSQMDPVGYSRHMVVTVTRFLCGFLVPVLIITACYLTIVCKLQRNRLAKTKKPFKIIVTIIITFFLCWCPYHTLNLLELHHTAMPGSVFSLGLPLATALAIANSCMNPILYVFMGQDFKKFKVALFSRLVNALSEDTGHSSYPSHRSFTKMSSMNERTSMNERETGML
Assay: Calcium flux - Aequoscreen assay
Format: cell-based
Description: ChemerinR expressing clones were transfected to coexpress mithochondrial apoaequorin and Gα16. Cells in mid-log phase, grown in media without antibiotics 18 hours prior to the test, were detached by gentle flushing with PBS-EDTA (5 mM EDTA), recovered by centrifugation and resuspended in “BSA medium” (DMEM/HAM's F12 with HEPES, without phenol red+0.1% BSA). Cells were then counted, centrifuged and resuspended in a 15 ml Falcon tube at a concentration of 1×10^6 cells/ml.
The Falcon tube, wrapped in aluminium foil, was then placed on a vertical rotating wheel and incubated at room temperature (temperature should be maintained below 22° C.) overnight in order to reconstitute active aequorin.
Cells were then diluted 1/10 in “BSA-medium” and incubated as described above for 60 min. Reference ligands were diluted in “BSA-medium” and distributed in a 96-well plate (50 μl/well). For each measurement, 50 μl of cells (i.e. 5 000 cells) were injected into each well of the plate containing the ligands, and the emitted light is recorded (FDSS, Hamamatsu) during 20 seconds following cells injection. Results were expressed as Relative Light Units (RLU).
The intensity of the emitted light was integrated, yielding for each well one value representative of the emitted light.

In the case of `CC(C)C[C@H](NC(=O)[C@@H](N)Cc1ccc(O)cc1)C(=O)N1CCC[C@H]1C(=O)NCC(=O)N[C@@H](CCC(N)=O)C(=O)N[C@@H](Cc1ccccc1)C(=O)N[C@@H](C)C(=O)N[C@@H](Cc1ccccc1)C(=O)N[C@@H](CO)C(=O)O`, the EC50 is reported as 3.23 nM.
